From ChEMBL document CHEMBL3988442, “University of Dundee, Small-Polar-MMV Screening Library” (2021).

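Whole-cell assay for inhibitors of Mycobacterium tuberculosis growth, labelled Cornell in the record; the read-out is not stated. The concentration is filed as 10 mM, unlikely as a test dose, so the dose is not known. The record gives no direction; compounds strong in two other growth screens of this library score well above the rest, so higher reads as stronger inhibition. About 53,000 compounds were tested under these conditions; 1.7% (about 900) showed 50% or more at least once.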

Each number is a percent effect as filed.
How 0% and 100% were set is not recorded. Most values in the screen are low, and negative values occur.
This is an unselected part of the compounds tested.

SMILES,Percent Effect
CCOc1ccnc(NCCc2nc(C)cc(=O)[nH]2)n1,14.34%
Cc1cc(NCc2ccc(CO)cc2)n2nc(C)cc2n1,-38.88%
O=C1c2ncccc2C(CCO)N1Cc1ccccc1 (centres unmarked),-20.6%
CC(C)c1nn(C)c(N(C)C)c1CNCc1ccnn1C,65.83%
CS(=O)(=O)CCSC1CCN(c2ccccc2F)C1=O (centres unmarked),19.12%
COCCn1c(=O)n(C)c(=O)c2ccc(C3CCN(C(C)=O)CC3)nc21,41.8%
COc1cccc(CN2CC(=O)N(c3ccccc3C)CC2C)c1OC (centres unmarked),14.73%
[H][C@]12CC[C@]([H])(CN(Cc3cccc(O)c3)C1)N(CCC)C2,1.323%
COCCCNS(=O)(=O)c1cc(Br)sc1C,24.16%
CCn1c(C)nnc1SCCNC(=O)CC1CCc2ccccc21 (centres unmarked),-5.183%
CCn1cnnc1CNC(=O)N(C)Cc1cccc(OC(F)F)c1,-84.19%
N#CCCN(CCC#N)C(=O)c1ccc(COc2ccccc2C#N)o1,9.353%
Cc1cccc2c1nc(COCC(=O)O)n2-c1cnc(N)cn1,-27.68%
[H][C@@]12CCN(C(=O)c3c(C)noc3C)C[C@]1(c1nc(C)no1)CCO2,13.66%
Cc1ncc(CN(C)C(=O)Nc2ccc(CN3CCOC3=O)cc2)s1,5.096%
Cc1oncc1C(=O)NCc1cc(=O)n2c(n1)CN(C)CCC2.O=C(O)C(F)(F)F,1.29%
CC(C)OCc1nn(C)c2c1CCN(Cc1ccco1)C2.O=C(O)C(F)(F)F,3.321%
CS(=O)(=O)N1CCCCC12CCN(C(=O)c1ccccc1)C2 (centres unmarked),13.96%
O=C(Nc1cccnc1-n1cncn1)C1CCC1,21.74%
O=C(O)C(F)(F)F.O=C(O)C(F)(F)F.[H][C@@]12CCCO[C@]1([H])[C@H](N(C)Cc1ccco1)CN2CC1CCOCC1,24.54%
Cc1cc(OCc2cccc(F)c2)ccc1NC(=O)C(C)NC(N)=O (centres unmarked),-43.75%
COC(=O)c1ccc(N2CCN(C(=O)c3ccncc3)C(C)C2)cc1 (centres unmarked),8.988%
CC(C)CC(C(=O)N(C)Cc1ncnn1C)N1CCCCC1=O (centres unmarked),21.98%
CCOc1ccc(S(=O)(=O)NCCc2ccc(N(C)C)cc2)cc1C,25.8%
CC(=O)NCc1ccc(S(=O)(=O)NC(=O)c2ccc3c(c2)COC3)s1,-31.48%
Cc1nnc(CCNC(=O)C(c2ccc(F)cc2)N(C)C)[nH]1 (centres unmarked),2.752%
CCn1c(C)cc(C(=O)N2CCC(NC(=O)c3ccc(C)o3)CC2)c1C,-16.35%
CNc1cccc(C2CCN(C(=O)c3cccnc3)CC2)n1,23.45%
CC1CCN(C(=O)C(C)N2CCc3[nH]nc(C(F)(F)F)c3C2)CC1 (centres unmarked),0.9976%
Cc1cccc(CN2CCc3ncnc(C4CC4)c3CC2)n1.O=C(O)C(F)(F)F,31.66%
Cc1nn(C)c(C)c1OCC(=O)N1CCCC1,-15.7%
[H][C@]12CN(C(=O)c3ccc(C#N)nc3)CC[C@@]1(O)CCN(C(=O)N(C)C)C2,26.98%
CC(C)(CO)Nc1c(NCc2ccccn2)c(=O)c1=O,21%
[H][C@@]12CCC(=O)N(CCc3ccccc3)[C@]1([H])CCN(S(=O)(=O)CC)C2,-13.64%
O=C(c1ccc(-c2cccc3c2CCNC3)o1)N1CCCCC1,22.16%
COCC(NC(=O)c1cnc(-c2ccncc2)nc1)c1ccnn1C (centres unmarked),1.357%
CCn1nnc2c1C(COCC(=O)N(C)C)CN(Cc1ccco1)C2.O=C(O)C(F)(F)F (centres unmarked),-24.18%
CCn1ccnc1CN(C)C1CCCN(CCc2ccccc2)C1 (centres unmarked),-0.8296%
Cc1cc(N2CCC3(CCCN(C4CCOCC4)C3=O)C2)ccn1 (centres unmarked),10.18%
Cc1occc1C(=O)N1CCC2(CCCN(CC3CCC3)C2=O)C1 (centres unmarked),-0.2142%
O=C(O)C(F)(F)F.[H][C@@]12CCN(Cc3ccc(CC)o3)C[C@@]1([H])O[C@@H](c1nnc(C)[nH]1)C2,29.34%
COCCN(C)c1ccc(NCc2cccnc2)nc1,-12.71%
Cc1nn(C)cc1C(=O)NCc1cc(N(C)C)nc2ccccc12,37.11%
O=C(Cc1ccccc1)N1Cc2nccn2CC(CN2CCCC2)C1.O=C(O)C(F)(F)F (centres unmarked),0.5319%
CCS(=O)(=O)N1CCN(CC2CC2)c2ncccc2C1,14.42%
CN(Cc1cc[nH]n1)C(=O)c1cn(Cc2ccccc2Cl)nn1,34.71%
Cn1ncc2c(N3CCC(CCO)CC3)nc(C(C)(C)C)nc21,26.71%
c1ccc(CNCC2Cn3nncc3CO2)nc1 (centres unmarked),-26.13%
Fc1cc(Cl)cnc1N1CCCC(c2nccn2Cc2ccccn2)C1 (centres unmarked),15.7%
Cc1cccc(NC(=O)[C@@H]2CCCN2Cc2ccccc2C#N)n1,10.4%
CCc1nc(C2CCCN2Cc2nc(Cc3ccccc3)no2)no1 (centres unmarked),20.8%
CCOCCNCC1CCN(CCO)CC1,22.83%
O=C1NCCCCC1SCc1coc(-c2ccc(F)cc2)n1 (centres unmarked),-23.46%
CCN1CCN(C[C@@H]2CN(c3ncccc3Cl)C[C@@H]2CO)CC1,-9.772%
CN(CCO)Cc1nnc(C2CCN(C(=O)C3CCOCC3)CC2)n1C,-15.98%
[H][C@@]12COC[C@]1([H])[C@@H](OCC)CN2C(=O)c1ccnnc1,-0.6052%
NC(=O)CC1CCN(Cc2ccccc2OCC(F)(F)F)CC1,8.999%
CS(=O)(=O)N1CCC(CNC(=O)C2CCC2)CC1,-26.73%
CCOC(=O)CNC(=O)c1cccnc1Sc1cc(OC)ccc1OC,-18.28%

The first 5 entries again:

{"smiles": "CCOc1ccnc(NCCc2nc(C)cc(=O)[nH]2)n1", "Percent Effect": 14.34}
{"smiles": "Cc1cc(NCc2ccc(CO)cc2)n2nc(C)cc2n1", "Percent Effect": -38.88}
{"smiles": "O=C1c2ncccc2C(CCO)N1Cc1ccccc1", "stereo": "centres unmarked", "Percent Effect": -20.6}
{"smiles": "CC(C)c1nn(C)c(N(C)C)c1CNCc1ccnn1C", "Percent Effect": 65.83}
{"smiles": "CS(=O)(=O)CCSC1CCN(c2ccccc2F)C1=O", "stereo": "centres unmarked", "Percent Effect": 19.12}